Measurements reported in PubChem BioAssay AID504774 (Drosophila RNAi Screening Center, 2011)
The deposit covers about 23,000 reagents; below is a random part of those with a known target gene and a result. 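Values are quantile-normalised luminescence on an arbitrary scale; higher means more cells surviving MMS.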 Reagents against one gene are numbered here. Names joined by + are all predicted targets of the reagent. Not all columns of the deposit are shown.

Aim: 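Fly genes whose loss alters survival after alkylation damage to DNA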 (primary screen)
Cells: Drosophila Kc167 cells
Reagent: long dsRNA against Drosophila genes, about 0.25 µg dsRNA per well
Duration: about 6 days: 3 days knock-down, then 3 days with or without MMS
Challenge: methyl methanesulphonate 0.004% (w/v) for 3 days after knock-down
Measurement: 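Viability in wells given MMS, read as ATP luminescence, normalised by quantiles plate by plate and averaged across replicates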
Direction: mean viability with MMS: higher = more surviving cells after MMS

mean viability with MMS, by target gene and reagent
Cec2: #1 3.60e6
CG2816: #1 3.57e6
eIF4H1: #1 3.47e6
CG31624: #1 3.59e6
CG15564: #1 3.40e6
Cipc: #1 3.67e6; #2 3.47e6
p47: #1 2.73e6
e(y)2: #1 3.52e6
chn: #1 3.32e6
Mct1: #1 3.50e6
NC2alpha: #1 3.28e6
CG31867: #1 3.56e6
CG30269: #1 3.57e6
Muc30E: #1 3.67e6
CG4962: #1 3.50e6
2mit: #1 3.52e6; #2 3.56e6
CG12523: #1 3.65e6
CG34041: #1 3.45e6
CG3740: #1 3.37e6
ash1: #1 3.51e6
CG7387: #1 3.46e6
Sox102F: #1 3.62e6
Had1: #1 3.51e6
CG1208: #1 3.44e6
CG10339: #1 3.55e6
CG7945 + yellow-k: #1 3.44e6
slou: #1 3.64e6
Acp24A4: #1 3.51e6
mei-P22: #1 3.70e6
Mst77F: #1 3.73e6
CG18787 + CG18789: #1 3.24e6
mesh: #1 1.99e6; #2 3.53e6; #3 3.36e6
CG32532: #1 3.57e6; #2 3.55e6; #3 3.54e6; #4 3.63e6
CG31710: #1 3.69e6; #2 3.40e6
Est-P: #1 3.53e6
Nrt: #1 3.52e6
RpL7-like + CG34164: #1 3.57e6; #2 3.69e6
CG31495: #1 3.52e6
PolD1: #1 3.29e6
chinmo: #1 3.92e6; #2 3.37e6; #3 3.21e6; #4 3.26e6
VGlut: #1 3.67e6; #2 3.38e6
CG9643: #1 3.48e6
CG2694: #1 3.62e6
Nnf1b: #1 3.78e6
Rcd6: #1 3.47e6
CG4702: #1 3.51e6
CG13066: #1 3.56e6
msopa: #1 3.14e6; #2 3.53e6
CG13203: #1 3.50e6
CG7789: #1 3.68e6
shps: #1 3.64e6
CG1146: #1 3.49e6
CG15344 (retired record): #1 3.49e6
CG9286: #1 3.39e6

Laid out differently: results already given
{"target gene": "CG32532", "reagent": 3, "mean viability with MMS": 3.54e6}
{"target gene": "CG32532", "reagent": 4, "mean viability with MMS": 3.63e6}
{"target gene": "CG31710", "reagent": 1, "mean viability with MMS": 3.69e6}
{"target gene": "CG31710", "reagent": 2, "mean viability with MMS": 3.40e6}
{"target gene": "Est-P", "reagent": 1, "mean viability with MMS": 3.53e6}
{"target gene": "Nrt", "reagent": 1, "mean viability with MMS": 3.52e6}
